No constants are given. Whether binding was seen depends on the method and setting. In cells and extracts the contact can be indirect. Some binding calls cover weakened binding; strength is not graded here.

Protein sequences, listed by entry. Tags and fused reporters are not part of them.
UniProt Q9H1Y0: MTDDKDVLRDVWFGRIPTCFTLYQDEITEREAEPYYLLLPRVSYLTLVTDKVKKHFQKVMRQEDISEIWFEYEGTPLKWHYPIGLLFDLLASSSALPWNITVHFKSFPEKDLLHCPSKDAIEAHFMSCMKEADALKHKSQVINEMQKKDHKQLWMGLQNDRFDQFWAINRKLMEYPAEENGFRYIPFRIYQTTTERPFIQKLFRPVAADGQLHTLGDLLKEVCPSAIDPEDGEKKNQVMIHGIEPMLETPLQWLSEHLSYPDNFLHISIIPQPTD
UniProt Q7Z434: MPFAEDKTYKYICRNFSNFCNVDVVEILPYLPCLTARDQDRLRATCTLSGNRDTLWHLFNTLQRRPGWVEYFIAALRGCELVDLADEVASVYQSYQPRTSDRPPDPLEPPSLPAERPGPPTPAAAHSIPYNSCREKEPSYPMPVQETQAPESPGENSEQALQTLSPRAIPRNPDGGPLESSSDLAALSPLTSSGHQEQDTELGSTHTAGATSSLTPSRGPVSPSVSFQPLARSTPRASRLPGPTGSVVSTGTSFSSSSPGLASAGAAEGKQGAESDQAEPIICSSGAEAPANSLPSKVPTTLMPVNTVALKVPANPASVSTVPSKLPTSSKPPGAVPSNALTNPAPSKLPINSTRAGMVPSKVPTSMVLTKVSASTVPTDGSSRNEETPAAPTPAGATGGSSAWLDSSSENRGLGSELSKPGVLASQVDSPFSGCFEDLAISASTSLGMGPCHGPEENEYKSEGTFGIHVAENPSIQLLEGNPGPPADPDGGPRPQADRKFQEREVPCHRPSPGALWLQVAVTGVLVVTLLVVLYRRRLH

For this assay, the target named is autophagy-related gene 5 (ATG5) protein (human (endogenous in NHTE cells)) (UniProt Q9H1Y0). Nature of the assay: co-IP; endogenous ATG5 precipitated with mouse anti-human ATG5 antibody (clone ATG5-18) from pre-cleared NHTE cell lysates (50 mM Tris-HCl pH 8.0, 120 mM NaCl, 1% NP-40, 4 mM EDTA), 4°C, 2 h; blots of RIG-I, IPS-1 and ATG5; cells treated with or without 100 mM trehalose for 48 h and with HRV-16 or PBS for 6 h.

As for “IFN-β promoter stimulator 1 (IPS-1) (from UniProt Q7Z434 1-540)”, the binding result is given as “binds”.

B1: retinoic acid-inducible gene I (RIG-I) (protein, UniProt O95786 1-925)
chain: MTTEQRRSLQAFQDYIRKTLDPTYILSYMAPWFREEEVQYIQAEKNNKGPMEAATLFLKFLLELQEEGWFRGFLDALDHAGYSGLYEAIESWDFKKIEKLEEYRLLLKRLQPEFKTRIIPTDIISDLSECLINQECEEILQICSTKGMMAGAEKLVECLLRSDKENWPKTLKLALEKERNKFSELWIVEKGIKDVETEDLEDKMETSDIQIFYQEDPECQNLSENSCPPSEVSDTNLYSPFKPRNYQLELALPAMKGKNTIICAPTGCGKTFVSLLICEHHLKKFPQGQKGKVVFFANQIPVYEQQKSVFSKYFERHGYRVTGISGATAENVPVEQIVENNDIIILTPQILVNNLKKGTIPSLSIFTLMIFDECHNTSKQHPYNMIMFNYLDQKLGGSSGPLPQVIGLTASVGVGDAKNTDEALDYICKLCASLDASVIATVKHNLEELEQVVYKPQKFFRKVESRISDKFKYIIAQLMRDTESLAKRICKDLENLSQIQNREFGTQKYEQWIVTVQKACMVFQMPDKDEESRICKALFLYTSHLRKYNDALIISEHARMKDALDYLKDFFSNVRAAGFDEIEQDLTQRFEEKLQELESVSRDPSNENPKLEDLCFILQEEYHLNPETITILFVKTRALVDALKNWIEGNPKLSFLKPGILTGRGKTNQNTGMTLPAQKCILDAFKASGDHNILIATSVADEGIDIAQCNLVILYEYVGNVIKMIQTRGRGRARGSKCFLLTSNAGVIEKEQINMYKEKMMNDSILRLQTWDEAVFREKILHIQTHEKFIRDSQEKPKPVPDKENKKLLCRKCKALACYTADVRVIEECHYTVLGDAFKECFVSRPHPKPKQFSSFEKRAKIFCARQNCSHDWGIHVKYKTFEIPVIKIESFVVEDIATGVQTLYSKWKDFHFEKIPFDPAEMSK
As for B1, the binding entry was “binds”.

The values are drawn from article PMC4400043.
